This experiment addresses YY1Δ4 (deletion of the zinc finger domain), 3×Flag-tagged (pcDNA3.1(+)-3 × Flag-YY1-Δ4) (UniProt P25490). The experiment in a line: co-IP; […] (20 mM Tris-HCl pH 7.5, 100 mM NaCl, 0.5 mM EDTA, 5% glycerol, 1% Triton X-100); […].

Amino acid sequences for entries named in this document (tags omitted). A change or cut given only in a name is not applied to a line headed by its entry.
UniProt P25490: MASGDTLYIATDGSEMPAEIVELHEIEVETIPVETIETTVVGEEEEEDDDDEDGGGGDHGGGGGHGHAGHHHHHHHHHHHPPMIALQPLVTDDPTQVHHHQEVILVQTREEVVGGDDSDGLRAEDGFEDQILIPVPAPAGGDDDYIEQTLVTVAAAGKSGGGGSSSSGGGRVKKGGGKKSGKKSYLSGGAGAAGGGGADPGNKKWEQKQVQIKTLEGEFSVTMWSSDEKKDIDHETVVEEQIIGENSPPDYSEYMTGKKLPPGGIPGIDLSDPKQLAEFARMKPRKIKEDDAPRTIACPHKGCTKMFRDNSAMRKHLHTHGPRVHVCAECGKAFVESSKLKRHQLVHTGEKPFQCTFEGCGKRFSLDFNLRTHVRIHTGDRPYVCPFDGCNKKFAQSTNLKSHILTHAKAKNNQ
UniProt P0DTC3: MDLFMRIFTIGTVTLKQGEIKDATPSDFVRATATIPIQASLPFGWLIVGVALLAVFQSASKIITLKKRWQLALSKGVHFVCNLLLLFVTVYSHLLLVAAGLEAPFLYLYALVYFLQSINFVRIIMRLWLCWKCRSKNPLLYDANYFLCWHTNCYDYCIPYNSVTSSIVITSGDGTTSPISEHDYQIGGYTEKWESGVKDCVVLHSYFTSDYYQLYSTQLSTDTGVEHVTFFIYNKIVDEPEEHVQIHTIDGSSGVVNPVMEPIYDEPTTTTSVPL

These are yes or no findings as the source states them, for the method shown. Binding seen in cells or lysates may run through a third protein.

For “SARS-CoV-2 ORF3a, HA-tagged (pCAGGS-HA-ORF3a) (from UniProt P0DTC3 1-275)”, the binding result was “no binding”.

These data come from publication PMC12324675.
